Publication PMC12582974
These are yes or no findings as the source states them, for the method shown. Some results given as binding are weak or reduced against the parent protein; the word gives no strength. Tags and fused reporters may be left off the sequences shown.

Chains of the proteins cited; added tags and fusions are not shown.
UniProt O43156: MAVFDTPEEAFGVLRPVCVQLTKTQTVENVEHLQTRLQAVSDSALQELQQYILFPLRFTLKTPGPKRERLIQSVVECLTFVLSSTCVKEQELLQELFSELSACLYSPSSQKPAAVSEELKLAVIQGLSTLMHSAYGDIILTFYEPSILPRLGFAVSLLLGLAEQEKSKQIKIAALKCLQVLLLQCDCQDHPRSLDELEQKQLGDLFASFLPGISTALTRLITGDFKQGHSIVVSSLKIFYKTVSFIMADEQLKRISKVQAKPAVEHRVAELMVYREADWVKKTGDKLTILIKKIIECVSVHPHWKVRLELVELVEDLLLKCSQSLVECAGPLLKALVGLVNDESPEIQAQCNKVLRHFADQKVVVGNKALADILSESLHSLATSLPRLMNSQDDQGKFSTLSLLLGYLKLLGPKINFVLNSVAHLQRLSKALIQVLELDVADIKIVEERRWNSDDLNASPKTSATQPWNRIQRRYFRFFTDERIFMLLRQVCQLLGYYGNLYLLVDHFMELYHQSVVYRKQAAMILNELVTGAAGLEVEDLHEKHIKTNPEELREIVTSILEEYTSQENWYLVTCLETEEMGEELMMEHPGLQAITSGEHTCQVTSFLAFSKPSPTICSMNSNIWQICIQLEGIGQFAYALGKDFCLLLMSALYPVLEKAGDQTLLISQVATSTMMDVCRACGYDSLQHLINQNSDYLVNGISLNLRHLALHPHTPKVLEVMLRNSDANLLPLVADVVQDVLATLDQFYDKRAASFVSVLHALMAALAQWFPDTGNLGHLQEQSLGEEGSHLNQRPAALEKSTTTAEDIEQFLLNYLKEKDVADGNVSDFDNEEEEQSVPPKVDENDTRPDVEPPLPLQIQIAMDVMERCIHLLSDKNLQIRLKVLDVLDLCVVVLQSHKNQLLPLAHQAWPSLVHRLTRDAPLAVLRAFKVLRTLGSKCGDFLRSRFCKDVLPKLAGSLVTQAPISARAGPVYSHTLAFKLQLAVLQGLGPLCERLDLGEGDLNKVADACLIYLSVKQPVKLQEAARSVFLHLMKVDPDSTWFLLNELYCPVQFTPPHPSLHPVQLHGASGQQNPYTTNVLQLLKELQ

Target: TwinStrep-3xHA-3C-TTI1 (human) (UniProt O43156)
Test: co-purification on affinity resin after co-expression; TwinStrep-3xHA-TTI1 and untagged TTI2 co-expressed in Sf9; StrepTactinXT resin in TTT buffer (100 mM Tris pH 8, 300 mM NaCl), elution with 50 mM biotin

- binding: binds
B1: untagged TTI2 (co-expressed with TTI1 in insect cells) (protein, UniProt Q6NXR4 1-508)
chain: MELDSALEAPSQEDSNLSEELSHSAFGQAFSKILHCLARPEARRGNVKDAVLKDLGDLIEATEFDRLFEGTGARLRGMPETLGQVAKALEKYAAPSKEEEGGGDGHSEAAEKAAQVGLLFLKLLGKVETAKNSLVGPAWQTGLHHLAGPVYIFAITHSLEQPWTTPRSREVAREVLTSLLQVTECGSVAGFLHGENEDEKGRLSVILGLLKPDLYKESWKNNPAIKHVFSWTLQQVTRPWLSQHLERVLPASLVISDDYQTENKILGVHCLHHIVLNVPAADLLQYNRAQVLYHAISNHLYTPEHHLIQAVLLCLLDLFPILEKTLHWKGDGARPTTHCDEVLRLILTHMEPEHRLLLRRTYARNLPAFVNRLGILTVRHLKRLERVIIGYLEVYDGPEEEARLKILETLKLLMQHTWPRVSCRLVVLLKALLKLICDVARDPNLTPESVKSALLQEATDCLILLDRCSQGRVKGLLAKIPQSCEDRKVVNYIRKVQQVSEGAPYNGT
